From publication PMC9478099
No constants are given. Whether binding was seen depends on the method and setting. In cells and extracts the contact can be indirect. Some binding calls cover weakened binding; strength is not graded here.

By UniProt entry, the sequences of proteins in these tests, tags left out.
UniProt P19338: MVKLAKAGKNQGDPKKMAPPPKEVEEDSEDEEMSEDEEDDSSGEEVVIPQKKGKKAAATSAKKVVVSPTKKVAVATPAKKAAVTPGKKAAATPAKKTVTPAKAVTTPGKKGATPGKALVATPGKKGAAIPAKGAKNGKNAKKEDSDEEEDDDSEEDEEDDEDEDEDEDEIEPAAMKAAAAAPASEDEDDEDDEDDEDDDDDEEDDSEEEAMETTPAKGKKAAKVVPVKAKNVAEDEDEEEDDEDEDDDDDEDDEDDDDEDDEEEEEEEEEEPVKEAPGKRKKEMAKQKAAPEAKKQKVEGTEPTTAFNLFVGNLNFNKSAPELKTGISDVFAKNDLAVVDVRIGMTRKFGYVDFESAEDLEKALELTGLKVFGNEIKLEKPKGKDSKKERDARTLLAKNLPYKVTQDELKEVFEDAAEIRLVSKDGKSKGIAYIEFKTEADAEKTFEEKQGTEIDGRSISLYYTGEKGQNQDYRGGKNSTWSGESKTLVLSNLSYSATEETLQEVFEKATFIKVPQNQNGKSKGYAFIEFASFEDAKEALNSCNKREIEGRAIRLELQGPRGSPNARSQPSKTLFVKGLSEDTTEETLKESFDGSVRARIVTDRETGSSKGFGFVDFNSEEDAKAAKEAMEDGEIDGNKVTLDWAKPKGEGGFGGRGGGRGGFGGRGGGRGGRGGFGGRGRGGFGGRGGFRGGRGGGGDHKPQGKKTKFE
UniProt Q96D31: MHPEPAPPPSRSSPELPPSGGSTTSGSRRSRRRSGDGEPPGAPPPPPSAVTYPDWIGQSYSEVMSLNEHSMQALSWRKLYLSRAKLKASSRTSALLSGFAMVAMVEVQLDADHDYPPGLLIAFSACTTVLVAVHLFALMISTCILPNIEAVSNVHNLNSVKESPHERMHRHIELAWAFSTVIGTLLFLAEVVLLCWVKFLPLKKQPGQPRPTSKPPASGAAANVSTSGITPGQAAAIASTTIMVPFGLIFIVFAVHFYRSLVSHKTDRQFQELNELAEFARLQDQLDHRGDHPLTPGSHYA

Target: Flag-tagged full-length NCL (UniProt P19338)
Assay: co-IP; MCF-7 cells transfected with NCL-Flag; immunoprecipitation with Flag antibody on protein A/G magnetic beads, mouse IgG as negative control; blots with anti-Flag and anti-Orai1

“Orai1, endogenous (from UniProt Q96D31 1-301)” was tested, and the binding was “binds”.
